From article PMC4365668, “The zinc finger proteins ZNF644 and WIZ regulate the G9a/GLP complex for gene repression”
Results are given in words; binding and its absence hold for the method and conditions named. Binding seen in cells or lysates may run through a third protein. Some entries that bind do so weakly or less than the wild type. For some of these results: Sequences can lack the tags named with a protein. One block for each molecule: values may come before it.

Amino acid sequences for entries named in this document (tags omitted).
UniProt O95785: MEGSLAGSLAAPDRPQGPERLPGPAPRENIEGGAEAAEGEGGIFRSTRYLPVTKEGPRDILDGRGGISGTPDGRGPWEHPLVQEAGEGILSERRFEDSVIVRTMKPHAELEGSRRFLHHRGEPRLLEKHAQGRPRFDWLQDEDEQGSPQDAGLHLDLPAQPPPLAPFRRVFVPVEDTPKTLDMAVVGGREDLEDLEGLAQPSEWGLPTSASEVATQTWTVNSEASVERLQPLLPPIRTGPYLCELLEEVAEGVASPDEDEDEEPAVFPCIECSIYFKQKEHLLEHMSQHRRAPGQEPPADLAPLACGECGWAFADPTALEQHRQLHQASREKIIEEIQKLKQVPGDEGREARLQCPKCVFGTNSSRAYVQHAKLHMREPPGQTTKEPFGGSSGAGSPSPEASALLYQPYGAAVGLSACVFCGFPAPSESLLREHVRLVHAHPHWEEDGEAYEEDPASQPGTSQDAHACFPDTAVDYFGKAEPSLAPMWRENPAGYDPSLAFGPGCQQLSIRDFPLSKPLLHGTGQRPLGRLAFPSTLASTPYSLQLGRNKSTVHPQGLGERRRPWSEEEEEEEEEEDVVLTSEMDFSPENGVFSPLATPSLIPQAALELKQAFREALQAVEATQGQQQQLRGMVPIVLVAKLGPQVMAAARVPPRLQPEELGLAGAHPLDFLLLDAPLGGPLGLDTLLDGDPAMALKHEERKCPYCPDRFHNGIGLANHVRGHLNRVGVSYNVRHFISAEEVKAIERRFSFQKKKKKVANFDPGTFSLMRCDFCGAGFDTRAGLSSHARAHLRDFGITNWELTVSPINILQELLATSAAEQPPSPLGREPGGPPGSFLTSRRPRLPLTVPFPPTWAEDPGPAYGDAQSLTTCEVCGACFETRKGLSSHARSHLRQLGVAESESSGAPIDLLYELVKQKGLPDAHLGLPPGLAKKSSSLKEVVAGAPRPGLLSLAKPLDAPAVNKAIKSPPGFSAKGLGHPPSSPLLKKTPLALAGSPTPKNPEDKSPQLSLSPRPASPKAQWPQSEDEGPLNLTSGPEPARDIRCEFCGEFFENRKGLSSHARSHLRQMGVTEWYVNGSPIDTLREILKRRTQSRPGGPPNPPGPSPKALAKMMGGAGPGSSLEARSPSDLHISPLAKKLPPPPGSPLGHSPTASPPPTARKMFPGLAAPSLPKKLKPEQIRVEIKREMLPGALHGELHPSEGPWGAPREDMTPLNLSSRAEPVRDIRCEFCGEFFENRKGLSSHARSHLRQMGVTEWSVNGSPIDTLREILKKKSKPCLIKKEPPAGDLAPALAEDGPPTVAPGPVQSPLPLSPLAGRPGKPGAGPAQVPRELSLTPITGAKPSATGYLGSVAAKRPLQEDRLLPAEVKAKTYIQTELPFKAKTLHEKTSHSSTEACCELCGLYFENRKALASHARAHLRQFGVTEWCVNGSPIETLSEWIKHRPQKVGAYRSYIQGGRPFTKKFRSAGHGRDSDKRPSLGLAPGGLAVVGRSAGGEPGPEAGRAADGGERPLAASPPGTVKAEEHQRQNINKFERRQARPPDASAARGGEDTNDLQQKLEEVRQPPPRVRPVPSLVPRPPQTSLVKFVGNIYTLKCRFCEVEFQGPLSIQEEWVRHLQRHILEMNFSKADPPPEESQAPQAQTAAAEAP

Columns and labels:
[1] = target: SFB-tagged GLP (wild type) (UniProt Q9H9B1); experiment: pull-down; SFB-tagged protein and its partner expressed in 293T cells; lysates on streptavidin beads, Western blotting
[2] = target: SFB-tagged WIZ (wild type) (human) (UniProt O95785); experiment: as above
[3] = target: GLP (endogenous) (human (endogenous in 293T and U2OS)) (UniProt Q9H9B1); experiment: co-IP; endogenous proteins of U2OS lysates; lysis in NETN400, diluted to 100 mM NaCl; IP and Western blotting with the antibodies indicated, irrelevant IgG as control; also after knock-down of G9a or GLP by siRNA
[4] = target: T1, G9a (endogenous) (human (endogenous in 293T and U2OS)), Q96KQ7; experiment: as above; details: remark: other sources report otherwise
T1 chain: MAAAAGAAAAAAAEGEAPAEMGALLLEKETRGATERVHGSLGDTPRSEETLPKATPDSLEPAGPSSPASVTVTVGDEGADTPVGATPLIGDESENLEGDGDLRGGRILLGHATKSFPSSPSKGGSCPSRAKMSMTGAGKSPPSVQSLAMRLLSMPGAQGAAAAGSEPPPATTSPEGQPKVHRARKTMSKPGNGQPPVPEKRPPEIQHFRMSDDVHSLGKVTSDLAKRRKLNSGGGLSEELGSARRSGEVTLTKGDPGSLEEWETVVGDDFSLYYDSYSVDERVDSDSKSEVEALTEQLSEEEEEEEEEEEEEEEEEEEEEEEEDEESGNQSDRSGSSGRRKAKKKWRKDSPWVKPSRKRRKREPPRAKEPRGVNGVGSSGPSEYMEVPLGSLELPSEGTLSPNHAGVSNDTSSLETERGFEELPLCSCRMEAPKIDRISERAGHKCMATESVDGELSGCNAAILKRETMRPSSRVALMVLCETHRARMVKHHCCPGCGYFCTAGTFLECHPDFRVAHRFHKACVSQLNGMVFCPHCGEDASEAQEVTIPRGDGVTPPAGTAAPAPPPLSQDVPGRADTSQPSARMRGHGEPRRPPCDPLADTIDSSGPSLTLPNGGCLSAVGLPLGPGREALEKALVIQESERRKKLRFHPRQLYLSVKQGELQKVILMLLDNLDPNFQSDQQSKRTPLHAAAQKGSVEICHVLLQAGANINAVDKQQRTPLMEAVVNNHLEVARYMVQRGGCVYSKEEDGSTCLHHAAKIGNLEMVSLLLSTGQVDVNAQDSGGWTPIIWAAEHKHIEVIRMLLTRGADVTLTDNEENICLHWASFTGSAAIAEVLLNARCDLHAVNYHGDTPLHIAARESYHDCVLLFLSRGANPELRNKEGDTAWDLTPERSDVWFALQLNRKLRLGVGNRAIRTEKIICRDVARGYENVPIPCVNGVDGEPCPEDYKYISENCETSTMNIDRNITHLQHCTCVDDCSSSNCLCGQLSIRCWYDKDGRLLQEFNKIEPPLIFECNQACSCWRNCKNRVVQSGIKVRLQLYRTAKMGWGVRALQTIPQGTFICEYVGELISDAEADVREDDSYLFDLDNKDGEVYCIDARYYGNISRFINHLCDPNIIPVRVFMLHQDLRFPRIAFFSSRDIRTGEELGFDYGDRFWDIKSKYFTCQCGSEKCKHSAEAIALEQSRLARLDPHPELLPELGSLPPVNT

[5] = target: SFB-tagged G9a (wild type) (UniProt Q96KQ7); experiment: pull-down; SFB-tagged protein and its partner expressed in 293T cells; lysates on streptavidin beads, Western blotting
[6] = target: SFB-tagged G9a (wild type) (UniProt Q96KQ7); experiment: co-IP; Myc-tagged ZNF644 or deletion mutants co-expressed with SFB-G9a in 293T cells; IP and Western blotting with indicated antibodies
[7] = target: G9a (endogenous) (human (endogenous in 293T and U2OS)) (UniProt Q96KQ7); experiment: co-IP; endogenous proteins of U2OS lysates; lysis in NETN400, diluted to 100 mM NaCl; IP and Western blotting with the antibodies indicated, irrelevant IgG as control; also after knock-down of G9a or GLP by siRNA

Molecule: WIZ (partner of SFB-G9a and SFB-GLP in Figure 2C and 2E) (from UniProt O95785 1-1651)
binding [1]: binds

Molecule: Myc-tagged GLP (from UniProt Q9H9B1 1-1298) (enzyme)
binding [2]: binds

B1: GLP (endogenous), Q9H9B1 1-1298 (enzyme)
chain: MAAADAEAVPARGEPQQDCCVKTELLGEETPMAADEGSAEKQAGEAHMAADGETNGSCENSDASSHANAAKHTQDSARVNPQDGTNTLTRIAENGVSERDSEAAKQNHVTADDFVQTSVIGSNGYILNKPALQAQPLRTTSTLASSLPGHAAKTLPGGAGKGRTPSAFPQTPAAPPATLGEGSADTEDRKLPAPGADVKVHRARKTMPKSVVGLHAASKDPREVREARDHKEPKEEINKNISDFGRQQLLPPFPSLHQSLPQNQCYMATTKSQTACLPFVLAAAVSRKKKRRMGTYSLVPKKKTKVLKQRTVIEMFKSITHSTVGSKGEKDLGASSLHVNGESLEMDSDEDDSEELEEDDGHGAEQAAAFPTEDSRTSKESMSEADRAQKMDGESEEEQESVDTGEEEEGGDESDLSSESSIKKKFLKRKGKTDSPWIKPARKRRRRSRKKPSGALGSESYKSSAGSAEQTAPGDSTGYMEVSLDSLDLRVKGILSSQAEGLANGPDVLETDGLQEVPLCSCRMETPKSREITTLANNQCMATESVDHELGRCTNSVVKYELMRPSNKAPLLVLCEDHRGRMVKHQCCPGCGYFCTAGNFMECQPESSISHRFHKDCASRVNNASYCPHCGEESSKAKEVTIAKADTTSTVTPVPGQEKGSALEGRADTTTGSAAGPPLSEDDKLQGAASHVPEGFDPTGPAGLGRPTPGLSQGPGKETLESALIALDSEKPKKLRFHPKQLYFSARQGELQKVLLMLVDGIDPNFKMEHQNKRSPLHAAAEAGHVDICHMLVQAGANIDTCSEDQRTPLMEAAENNHLEAVKYLIKAGALVDPKDAEGSTCLHLAAKKGHYEVVQYLLSNGQMDVNCQDDGGWTPMIWATEYKHVDLVKLLLSKGSDINIRDNEENICLHWAAFSGCVDIAEILLAAKCDLHAVNIHGDSPLHIAARENRYDCVVLFLSRDSDVTLKNKEGETPLQCASLNSQVWSALQMSKALQDSAPDRPSPVERIVSRDIARGYERIPIPCVNAVDSEPCPSNYKYVSQNCVTSPMNIDRNITHLQYCVCIDDCSSSNCMCGQLSMRCWYDKDGRLLPEFNMAEPPLIFECNHACSCWRNCRNRVVQNGLRARLQLYRTRDMGWGVRSLQDIPPGTFVCEYVGELISDSEADVREEDSYLFDLDNKDGEVYCIDARFYGNVSRFINHHCEPNLVPVRVFMAHQDLRFPRIAFFSTRLIEAGEQLGFDYGERFWDIKGKLFSCRCGSPKCRHSSAALAQRQASAAQEAQEDGLPDTSSAAAADPL
binding [4]: binds

B3: ZNF644 (endogenous) (protein, UniProt Q9H582 1-1327)
chain: MRSFLQQDVNKTKSRLNVLNGLANNMDDLKINTDITGAKEELLDDNNFISDKESGVHKPKDCQTSFQKNNTLTLPEELSKDKSENALSGGQSSLFIHAGAPTVSSENFILPKGAAVNGPVSHSSLTKTSNMNKGSVSLTTGQPVDQPTTESCSTLKVAADLQLSTPQKASQHQVLFLLSDVAHAKNPTHSNKKLPTSASVGCDIQNSVGSNIKSDGTLINQVEVGEDGEDLLVKDDCVNTVTGISSGTDGFRSENDTNWDPQKEFIQFLMTNEETVDKAPPHSKIGLEKKRKRKMDVSKITRYTEDCFSDSNCVPNKSKMQEVDFLEQNEELQAVDSQKYALSKVKPESTDEDLESVDAFQHLIYNPDKCGEESSPVHTSTFLSNTLKKKCEESDSESPATFSTEEPSFYPCTKCNVNFREKKHLHRHMMYHLDGNSHFRHLNVPRPYACRECGRTFRDRNSLLKHMIIHQERRQKLMEEIRELKELQDEGRSARLQCPQCVFGTNCPKTFVQHAKTHEKDKRYYCCEECNFMAVTENELECHRGIAHGAVVKCPMVTSDIAQRKTQKKTFMKDSVVGSSKKSATYICKMCPFTTSAKSVLKKHTEYLHSSSCVDSFGSPLGLDKRKNDILEEPVDSDSTKTLTKQQSTTFPKNSALKQDVKRTFGSTSQSSSFSKIHKRPHRIQKARKSIAQSGVNMCNQNSSPHKNVTIKSSVDQKPKYFHQAAKEKSNAKANSHYLYRHKYENYRMIKKSGESYPVHFKKEEASSLNSLHLFSSSSNSHNNFISDPHKPDAKRPESFKDHRRVAVKRVIKESKKESSVGGEDLDSYPDFLHKMTVVVLQKLNSAEKKDSYETEDESSWDNVELGDYTTQAIEDETYSDINQEHVNLFPLFKSKVEGQEPGENATLSYDQNDGFYFEYYEDTGSNNFLHEIHDPQHLETADASLSKHSSVFHWTDLSLEKKSCPYCPATFETGVGLSNHVRGHLHRAGLSYEARHVVSPEQIATSDKMQHFKRTGTGTPVKRVRKAIEKSETTSEHTCQLCGGWFDTKIGLSNHVRGHLKRLGKTKWDAHKSPICVLNEMMQNEEKYEKILKALNSRRIIPRPFVAQKLASSDDFISQNVIPLEAYRNGLKTEALSVSASEEEGLNFLNEYDETKPELPSGKKNQSLTLIELLKNKRMGEERNSAISPQKIHNQTARKRFVQKCVLPLNEDSPLMYQPQKMDLTMHSALDCKQKKSRSRSGSKKKMLTLPHGADEVYILRCRFCGLVFRGPLSVQEDWIKHLQRHIVNANLPRTGAGMVEVTSLLKKPASITETSFSLLMAEAAS
binding [7]: binds

The next lines start with the values.

binding [3]: binds
Molecule: WIZ (endogenous) (from UniProt O95785 1-1651)

binding [5]: binds
binding [6]: binds
B2: Myc-tagged ZNF644 (wild type) (protein, UniProt Q9H582 1-1327)
chain: MRSFLQQDVNKTKSRLNVLNGLANNMDDLKINTDITGAKEELLDDNNFISDKESGVHKPKDCQTSFQKNNTLTLPEELSKDKSENALSGGQSSLFIHAGAPTVSSENFILPKGAAVNGPVSHSSLTKTSNMNKGSVSLTTGQPVDQPTTESCSTLKVAADLQLSTPQKASQHQVLFLLSDVAHAKNPTHSNKKLPTSASVGCDIQNSVGSNIKSDGTLINQVEVGEDGEDLLVKDDCVNTVTGISSGTDGFRSENDTNWDPQKEFIQFLMTNEETVDKAPPHSKIGLEKKRKRKMDVSKITRYTEDCFSDSNCVPNKSKMQEVDFLEQNEELQAVDSQKYALSKVKPESTDEDLESVDAFQHLIYNPDKCGEESSPVHTSTFLSNTLKKKCEESDSESPATFSTEEPSFYPCTKCNVNFREKKHLHRHMMYHLDGNSHFRHLNVPRPYACRECGRTFRDRNSLLKHMIIHQERRQKLMEEIRELKELQDEGRSARLQCPQCVFGTNCPKTFVQHAKTHEKDKRYYCCEECNFMAVTENELECHRGIAHGAVVKCPMVTSDIAQRKTQKKTFMKDSVVGSSKKSATYICKMCPFTTSAKSVLKKHTEYLHSSSCVDSFGSPLGLDKRKNDILEEPVDSDSTKTLTKQQSTTFPKNSALKQDVKRTFGSTSQSSSFSKIHKRPHRIQKARKSIAQSGVNMCNQNSSPHKNVTIKSSVDQKPKYFHQAAKEKSNAKANSHYLYRHKYENYRMIKKSGESYPVHFKKEEASSLNSLHLFSSSSNSHNNFISDPHKPDAKRPESFKDHRRVAVKRVIKESKKESSVGGEDLDSYPDFLHKMTVVVLQKLNSAEKKDSYETEDESSWDNVELGDYTTQAIEDETYSDINQEHVNLFPLFKSKVEGQEPGENATLSYDQNDGFYFEYYEDTGSNNFLHEIHDPQHLETADASLSKHSSVFHWTDLSLEKKSCPYCPATFETGVGLSNHVRGHLHRAGLSYEARHVVSPEQIATSDKMQHFKRTGTGTPVKRVRKAIEKSETTSEHTCQLCGGWFDTKIGLSNHVRGHLKRLGKTKWDAHKSPICVLNEMMQNEEKYEKILKALNSRRIIPRPFVAQKLASSDDFISQNVIPLEAYRNGLKTEALSVSASEEEGLNFLNEYDETKPELPSGKKNQSLTLIELLKNKRMGEERNSAISPQKIHNQTARKRFVQKCVLPLNEDSPLMYQPQKMDLTMHSALDCKQKKSRSRSGSKKKMLTLPHGADEVYILRCRFCGLVFRGPLSVQEDWIKHLQRHIVNANLPRTGAGMVEVTSLLKKPASITETSFSLLMAEAAS
